{"source": "patent US7407645B2", "about": "(Metaphore Pharmaceuticals, Inc., priority 1995, dated 2008)", "experiment": "general procedure: solution-phase peptide synthesis; EDC.HCl / HOBt.H2O with TEA in DMF; DPPA for cyclisation", "settings": "TFA salt", "data": [{"substance": "Boc-Gly-Orn(Z)-Cyc(Ts)-Gly-Gly-OEt", "values": [{"measurement": "step yield", "setting": "coupling step", "value": 87, "unit": "%"}]}, {"substance": "Boc-Gly-Orn(Z)-Cyc(Ts)-Gly-Gly-OH", "values": [{"measurement": "step yield", "setting": "late stage modification step", "value": 91, "unit": "%"}]}, {"substance": "Boc-Orn(Z)-Cyc(Ts)-Gly-Gly-OEt", "values": [{"measurement": "step yield", "setting": "coupling step", "value": 87, "unit": "%"}]}, {"substance": "Gly-Orn(Z)-Cyc(Ts)-Gly-Gly-OH TFA salt", "values": [{"measurement": "step yield", "setting": "late stage modification step", "value": 99, "unit": "%"}]}, {"substance": "Orn(Z)-Cyc(Ts)-Gly-Gly-OEt TFA salt", "values": [{"measurement": "step yield", "setting": "late stage modification step", "value": ">100", "unit": "%"}]}, {"substance": "cyclo-(Gly-Orn(Lithocholyl)-Cyc(Ts)-Gly-Gly-)", "values": [{"measurement": "step yield", "setting": "lipidation step", "value": 56, "unit": "%"}]}, {"substance": "cyclo-(Gly-Orn(Z)-Cyc(Ts)-Gly-Gly-)", "values": [{"measurement": "cyclisation yield", "setting": "cyclisation step", "value": 78, "unit": "%"}]}, {"substance": "cyclo-(Gly-Orn-Cyc(Ts)-Gly-Gly-)", "values": [{"measurement": "step yield", "setting": "late stage modification step", "value": 89, "unit": "%"}]}]}
